Measured values: article PMC9885530, “Identification of Natural Products Inhibiting SARS-CoV-2 by Targeting Viral Proteases: A Combined in Silico and in Vitro Approach” (Journal of Natural Products, 2023)
pIC50: −log10 of the molar value.

Test system: SARS-CoV-2
Experiment: Antiviral assay in Calu-3 cells (spike staining)
Format: cell-based
Settings: Severe acute respiratory syndrome coronavirus 2, MOI 0.01, 48 h postinfection, read-out: Anti-SARS-CoV-2 activity IC50

## CC1=C[C@H](c2c(O)ccc([C@@H]3CC(=O)c4c(O)cc(O)cc4O3)c2O)[C@@H](C(=O)c2ccc(O)cc2O)[C@H](c2ccc(O)cc2O)C1 [Compound 16, kuwanon L]
  pIC50: < 4.70
